No constants are given. Whether binding was seen depends on the method and setting. In cells and extracts the contact can be indirect. These calls come from enrichment with a bait or labelling near it, and not all partners need be listed.
Target: FLAG-Glis3-ΔC480-HA (mouse) (UniProt F6SGN4)
Assay: affinity purification with mass spectrometry; tandem FLAG/HA affinity purification of FLAG-Glis3-ΔC480-HA from lysates of stable HEK293-F cells (anti-M2 FLAG agarose, then anti-HA magnetic beads); SDS-PAGE, GeLC-MS; empty vector cells as control

Sequences of proteins named here, by UniProt entry; tags and fusion partners are left off.
UniProt O14744: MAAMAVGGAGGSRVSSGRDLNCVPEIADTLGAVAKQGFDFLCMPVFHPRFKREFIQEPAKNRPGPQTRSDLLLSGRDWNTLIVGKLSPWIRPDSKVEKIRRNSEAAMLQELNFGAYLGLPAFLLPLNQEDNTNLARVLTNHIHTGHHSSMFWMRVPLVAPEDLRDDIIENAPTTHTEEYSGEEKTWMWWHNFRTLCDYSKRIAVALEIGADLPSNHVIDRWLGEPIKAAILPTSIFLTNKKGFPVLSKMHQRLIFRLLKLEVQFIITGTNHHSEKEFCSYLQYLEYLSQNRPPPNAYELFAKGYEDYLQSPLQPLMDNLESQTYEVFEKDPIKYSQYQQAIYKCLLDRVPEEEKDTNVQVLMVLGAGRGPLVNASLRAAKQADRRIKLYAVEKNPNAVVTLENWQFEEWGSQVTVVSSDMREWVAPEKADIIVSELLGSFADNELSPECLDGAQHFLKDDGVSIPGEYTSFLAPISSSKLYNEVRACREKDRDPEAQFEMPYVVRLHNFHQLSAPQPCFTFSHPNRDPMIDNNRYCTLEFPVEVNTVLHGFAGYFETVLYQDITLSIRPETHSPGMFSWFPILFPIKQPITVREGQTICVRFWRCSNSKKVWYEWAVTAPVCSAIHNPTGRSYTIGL

binding: binds
Substance: protein arginine methyltransferase 5 (Prmt5) (from UniProt O14744 1-637) (enzyme)

Source: publication PMC4493090
